Results reported in article doi:10.1101/2023.10.13.562211.
Results are given in words; binding and its absence hold for the method and conditions named. Binding seen in cells or lysates may run through a third protein. Binding can be weak; no strength is given.

Amino acid sequences for entries named in this document (tags omitted). A change or cut given only in a name is not applied to a line headed by its entry.
UniProt Q94JQ6: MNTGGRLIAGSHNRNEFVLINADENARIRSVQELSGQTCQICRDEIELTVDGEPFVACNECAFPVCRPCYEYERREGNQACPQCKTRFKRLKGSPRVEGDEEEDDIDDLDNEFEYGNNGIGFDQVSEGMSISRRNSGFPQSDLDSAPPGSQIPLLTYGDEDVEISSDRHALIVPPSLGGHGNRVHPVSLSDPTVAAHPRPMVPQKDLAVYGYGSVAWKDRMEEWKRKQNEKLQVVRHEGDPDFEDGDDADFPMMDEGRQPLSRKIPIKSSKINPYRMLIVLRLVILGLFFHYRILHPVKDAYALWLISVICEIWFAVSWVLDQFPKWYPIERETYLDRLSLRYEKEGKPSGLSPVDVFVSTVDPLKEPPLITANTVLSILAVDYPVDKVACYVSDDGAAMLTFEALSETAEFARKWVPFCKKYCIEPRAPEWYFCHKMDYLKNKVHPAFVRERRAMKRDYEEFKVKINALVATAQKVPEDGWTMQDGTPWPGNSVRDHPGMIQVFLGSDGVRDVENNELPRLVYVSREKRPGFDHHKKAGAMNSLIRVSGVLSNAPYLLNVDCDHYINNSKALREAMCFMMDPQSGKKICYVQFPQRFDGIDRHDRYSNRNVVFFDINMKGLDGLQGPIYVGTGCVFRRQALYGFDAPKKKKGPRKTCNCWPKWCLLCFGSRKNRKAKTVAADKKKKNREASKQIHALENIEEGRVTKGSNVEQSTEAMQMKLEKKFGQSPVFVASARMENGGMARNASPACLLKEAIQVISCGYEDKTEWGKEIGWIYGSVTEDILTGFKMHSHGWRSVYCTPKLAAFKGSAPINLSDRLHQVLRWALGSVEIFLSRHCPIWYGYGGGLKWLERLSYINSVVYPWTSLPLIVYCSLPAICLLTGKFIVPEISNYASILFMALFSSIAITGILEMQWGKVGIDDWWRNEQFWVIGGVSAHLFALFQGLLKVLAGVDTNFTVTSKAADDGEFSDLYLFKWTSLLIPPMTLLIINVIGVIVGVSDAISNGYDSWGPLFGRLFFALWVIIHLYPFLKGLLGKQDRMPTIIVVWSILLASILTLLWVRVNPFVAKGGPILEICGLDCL
UniProt Q941L0: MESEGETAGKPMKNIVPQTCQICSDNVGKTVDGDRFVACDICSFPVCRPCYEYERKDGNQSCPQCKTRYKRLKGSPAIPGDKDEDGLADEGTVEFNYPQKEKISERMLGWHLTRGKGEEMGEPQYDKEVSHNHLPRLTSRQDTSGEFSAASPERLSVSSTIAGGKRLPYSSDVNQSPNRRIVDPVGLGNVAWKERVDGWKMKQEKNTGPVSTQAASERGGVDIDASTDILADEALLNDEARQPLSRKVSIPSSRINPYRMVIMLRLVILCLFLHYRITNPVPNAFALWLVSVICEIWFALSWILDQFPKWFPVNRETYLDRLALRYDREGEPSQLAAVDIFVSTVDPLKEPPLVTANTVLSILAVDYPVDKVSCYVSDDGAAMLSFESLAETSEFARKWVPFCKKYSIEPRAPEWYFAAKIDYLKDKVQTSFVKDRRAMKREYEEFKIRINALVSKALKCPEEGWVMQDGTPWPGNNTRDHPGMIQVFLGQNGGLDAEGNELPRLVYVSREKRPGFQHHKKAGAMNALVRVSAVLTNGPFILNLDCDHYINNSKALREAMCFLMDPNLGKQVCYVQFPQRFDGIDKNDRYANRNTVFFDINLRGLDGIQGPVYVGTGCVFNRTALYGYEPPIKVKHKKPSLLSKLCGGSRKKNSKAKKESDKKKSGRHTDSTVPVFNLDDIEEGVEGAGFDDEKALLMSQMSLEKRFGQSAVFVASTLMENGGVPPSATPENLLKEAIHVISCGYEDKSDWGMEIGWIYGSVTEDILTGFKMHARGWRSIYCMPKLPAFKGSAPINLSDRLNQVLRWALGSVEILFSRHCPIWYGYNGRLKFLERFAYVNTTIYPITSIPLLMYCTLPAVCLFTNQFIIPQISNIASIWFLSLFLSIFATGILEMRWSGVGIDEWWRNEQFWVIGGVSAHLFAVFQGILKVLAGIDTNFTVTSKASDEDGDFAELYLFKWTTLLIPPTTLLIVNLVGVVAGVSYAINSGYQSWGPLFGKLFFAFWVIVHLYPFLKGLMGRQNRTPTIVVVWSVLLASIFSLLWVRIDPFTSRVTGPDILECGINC
UniProt O48946: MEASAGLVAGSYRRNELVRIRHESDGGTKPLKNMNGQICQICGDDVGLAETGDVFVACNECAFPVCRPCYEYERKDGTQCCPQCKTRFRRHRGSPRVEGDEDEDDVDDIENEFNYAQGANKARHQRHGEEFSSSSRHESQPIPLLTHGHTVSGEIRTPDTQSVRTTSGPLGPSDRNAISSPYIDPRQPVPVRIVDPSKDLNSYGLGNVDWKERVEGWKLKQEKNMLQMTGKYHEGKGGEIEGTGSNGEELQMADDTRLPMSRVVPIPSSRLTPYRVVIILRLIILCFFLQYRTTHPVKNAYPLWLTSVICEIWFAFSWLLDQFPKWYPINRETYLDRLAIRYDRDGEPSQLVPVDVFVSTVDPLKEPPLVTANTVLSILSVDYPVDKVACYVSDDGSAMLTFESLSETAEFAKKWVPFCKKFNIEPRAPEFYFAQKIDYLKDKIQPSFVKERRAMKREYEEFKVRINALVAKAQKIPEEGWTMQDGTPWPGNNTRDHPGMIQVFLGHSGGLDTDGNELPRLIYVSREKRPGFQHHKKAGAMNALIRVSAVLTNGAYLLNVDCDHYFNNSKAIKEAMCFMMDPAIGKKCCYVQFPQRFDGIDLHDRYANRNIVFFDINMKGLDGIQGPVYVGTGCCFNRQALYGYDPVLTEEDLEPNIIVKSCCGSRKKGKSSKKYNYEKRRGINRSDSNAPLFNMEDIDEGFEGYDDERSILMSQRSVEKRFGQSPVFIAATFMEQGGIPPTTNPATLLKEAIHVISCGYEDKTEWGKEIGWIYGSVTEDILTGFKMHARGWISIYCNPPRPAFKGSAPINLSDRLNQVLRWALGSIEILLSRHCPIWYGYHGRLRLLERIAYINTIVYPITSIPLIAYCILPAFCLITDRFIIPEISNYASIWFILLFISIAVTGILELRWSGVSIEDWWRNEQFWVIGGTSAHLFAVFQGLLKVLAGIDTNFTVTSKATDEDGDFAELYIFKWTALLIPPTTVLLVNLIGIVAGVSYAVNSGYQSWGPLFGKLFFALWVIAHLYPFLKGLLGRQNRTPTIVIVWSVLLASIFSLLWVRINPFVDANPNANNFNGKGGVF
UniProt Q8L778: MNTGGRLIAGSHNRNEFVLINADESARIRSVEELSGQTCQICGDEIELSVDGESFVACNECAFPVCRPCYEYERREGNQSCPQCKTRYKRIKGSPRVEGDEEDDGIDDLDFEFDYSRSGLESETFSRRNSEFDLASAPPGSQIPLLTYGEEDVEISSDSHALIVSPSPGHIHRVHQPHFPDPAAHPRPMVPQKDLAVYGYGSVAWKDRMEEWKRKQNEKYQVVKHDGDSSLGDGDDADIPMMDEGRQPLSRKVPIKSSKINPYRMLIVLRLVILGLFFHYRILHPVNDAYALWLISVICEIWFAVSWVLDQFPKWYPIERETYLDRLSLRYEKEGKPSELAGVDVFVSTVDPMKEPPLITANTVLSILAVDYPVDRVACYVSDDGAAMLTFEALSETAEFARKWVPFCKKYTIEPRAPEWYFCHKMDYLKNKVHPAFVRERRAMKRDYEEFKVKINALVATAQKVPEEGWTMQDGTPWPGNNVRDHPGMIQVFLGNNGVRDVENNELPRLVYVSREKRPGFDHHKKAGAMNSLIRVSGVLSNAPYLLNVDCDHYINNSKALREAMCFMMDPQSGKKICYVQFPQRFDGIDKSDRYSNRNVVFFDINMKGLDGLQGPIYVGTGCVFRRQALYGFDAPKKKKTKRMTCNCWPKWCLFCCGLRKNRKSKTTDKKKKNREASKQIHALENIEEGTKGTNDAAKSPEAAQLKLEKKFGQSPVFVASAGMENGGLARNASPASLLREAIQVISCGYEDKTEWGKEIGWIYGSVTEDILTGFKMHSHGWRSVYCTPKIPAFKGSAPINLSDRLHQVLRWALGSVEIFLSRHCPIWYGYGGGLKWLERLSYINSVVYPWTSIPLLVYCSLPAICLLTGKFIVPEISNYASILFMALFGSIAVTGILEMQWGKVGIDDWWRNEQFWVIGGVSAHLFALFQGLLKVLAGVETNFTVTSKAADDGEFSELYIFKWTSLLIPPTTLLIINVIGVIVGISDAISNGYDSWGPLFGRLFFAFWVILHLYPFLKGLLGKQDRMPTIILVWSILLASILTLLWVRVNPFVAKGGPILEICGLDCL

Tests used:
Assay in all cases: split reporter
[1] = biological target: CESA6 N-terminal region (N to VR1) (Arabidopsis thaliana) (UniProt Q94JQ6)
[2] = biological target: CESA3 N-terminal region (N to VR1) (Arabidopsis thaliana) (UniProt Q941L0)
[3] = biological target: CESA1 N-terminal region (N to VR1) (Arabidopsis thaliana) (UniProt O48946)

Substance | binding [1] | binding [2] | binding [3]
CESA1 N-terminal region (N to VR1) (from UniProt O48946) (domain or fragment) | binds | binds | –
CESA3 N-terminal region (N to VR1) (from UniProt Q941L0) (domain or fragment) | binds | – | –
CESA5 N-terminal region (N to VR1), wild type (from UniProt Q8L778) (domain or fragment) | binds | binds | binds
